Some peptides are written in HELM: one residue between dots, names in brackets for other building blocks, links after the first $.
Assay: general procedure: solution-phase peptide synthesis; EDCI, HOAt
Details: late stage modification step
[1] = over 2 steps, bicyclic, sequence written open
[2] = bicyclic, sequence written open

(N-Boc-D-Ser-L-Ala-N-Boc-N-Me-L-Cys-N-Me-L-Val)2 sulfide (22)
step yield (over 2 steps): 39% over 2 steps

PEPTIDE1{[4BzBz].[dS].A.[NMeCys].[NMeVal]}|PEPTIDE2{[4BzBz].[dS].A.[NMeAlaB].[NMeVal]}$PEPTIDE1,PEPTIDE2,5:R2-2:R3|PEPTIDE2,PEPTIDE1,5:R2-2:R3|PEPTIDE1,PEPTIDE2,4:R3-4:R3$$$V2.0
step yield (over 2 steps): 71% over 2 steps

PEPTIDE1{[AQ2CO].[dS].A.[NMeCys].[NMeVal]}|PEPTIDE2{[AQ2CO].[dS].A.[NMeAlaB].[NMeVal]}$PEPTIDE1,PEPTIDE2,5:R2-2:R3|PEPTIDE2,PEPTIDE1,5:R2-2:R3|PEPTIDE1,PEPTIDE2,4:R3-4:R3$$$V2.0
step yield (over 2 steps): 62% over 2 steps

PEPTIDE1{[Nap2CO].[dS].A.[NMeCys].[NMeVal]}|PEPTIDE2{[Nap2CO].[dS].A.[NMeAlaB].[NMeVal]}$PEPTIDE1,PEPTIDE2,5:R2-2:R3|PEPTIDE2,PEPTIDE1,5:R2-2:R3|PEPTIDE1,PEPTIDE2,4:R3-4:R3$$$V2.0
step yield: 33%

PEPTIDE1{[Pyz2CO].[dS].A.[NMeCys].[NMeVal]}|PEPTIDE2{[Pyz2CO].[dS].A.[NMeAlaB].[NMeVal]}$PEPTIDE1,PEPTIDE2,5:R2-2:R3|PEPTIDE2,PEPTIDE1,5:R2-2:R3|PEPTIDE1,PEPTIDE2,4:R3-4:R3$$$V2.0
step yield (over 2 steps): 49% over 2 steps

PEPTIDE1{[Qn2CO].[dS].A.[NMeCys].[NMeVal]}|PEPTIDE2{[Qn2CO].[dS].A.[NMeAlaB].[NMeVal]}$PEPTIDE1,PEPTIDE2,5:R2-2:R3|PEPTIDE2,PEPTIDE1,5:R2-2:R3|PEPTIDE1,PEPTIDE2,4:R3-4:R3$$$V2.0
step yield: 20%

{N-(Benzofurane-2-carbonyl)-D-Ser-L-Ala-N-Boc-N-Me-L-Cys-N-Me-L-Val}2 sulfide (13)
step yield [1]: 85% over 2 steps

{N-(Benzothiophene-2-carbonyl)-D-Ser-L-Ala-N-Boc-N-Me-L-Cys-N-Me-L-Val}2 sulfide (14)
step yield [1]: 87% over 2 steps

{N-(Benzoxazole-5-carbonyl)-D-Ser-L-Ala-N-Boc-N-Me-L-Cys-N-Me-L-Val}2 sulfide (15)
step yield [1]: 33% over 2 steps

{N-(Benzoxazole-6-carbonyl)-D-Ser-L-Ala-N-Boc-N-Me-L-Cys-N-Me-L-Val}2 sulfide (16)
step yield [1]: 54% over 2 steps

{N-(Benzthiazole-6-carbonyl)-D-Ser-L-Ala-N-Boc-N-Me-L-Cys-N-Me-L-Val}2 sulfide (17)
step yield [1]: 51% over 2 steps

{N-(Indol-2-carbonyl)-D-Ser-L-Ala-N-Boc-N-Me-L-Cys-N-Me-L-Val}2 sulfide (8)
step yield [1]: 30% over 2 steps

{N-(Indol-3-carbonyl)-D-Ser-L-Ala-N-Boc-N-Me-L-Cys-N-Me-L-Val}2 sulfide (9)
step yield (over 3 steps, bicyclic, sequence written open): 19% over 3 steps

{N-(Indol-5-carbonyl)-D-Ser-L-Ala-N-Boc-N-Me-L-Cys-N-Me-L-Val}2 sulfide (10)
step yield [1]: 57% over 2 steps

{N-(Indol-6-carbonyl)-D-Ser-L-Ala-N-Boc-N-Me-L-Cys-N-Me-L-Val}2 sulfide (11)
step yield [1]: 28% over 2 steps

{N-(Indol-7-carbonyl)-D-Ser-L-Ala-N-Boc-N-Me-L-Cys-N-Me-L-Val}2 sulfide (12)
step yield [1]: 28% over 2 steps

{N-(Quinoline-3-carbonyl)-D-Ser-L-Ala-N-Boc-N-Me-L-Cys-N-Me-L-Val}2 sulfide (5)
step yield [2]: 17%

{N-(Quinoline-6-carbonyl)-D-Ser-L-Ala-N-Boc-N-Me-L-Cys-N-Me-L-Val}2 sulfide (6)
step yield [2]: 19%
